Source: patent publication US20180147256A1, “MEANS AND METHODS FOR TREATING FACIOSCAPULOHUMERAL MUSCULAR DYSTROPHY (FSHD)” (ACADEMISCH ZIEKENHUIS LEIDEN H.O.D.N. LUMC, priority 2015, published 2018)
These are yes or no findings as the source states them, for the method shown. Binding seen in cells or lysates may run through a third protein. Some binding calls cover weakened binding; strength is not graded here.

The chains behind the UniProt entries cited, without tags or fusion partners. Where a name states a change or a piece, a line headed by the entry shows the natural chain unless it says otherwise. Residues count along the entry.
UniProt A6NHR9: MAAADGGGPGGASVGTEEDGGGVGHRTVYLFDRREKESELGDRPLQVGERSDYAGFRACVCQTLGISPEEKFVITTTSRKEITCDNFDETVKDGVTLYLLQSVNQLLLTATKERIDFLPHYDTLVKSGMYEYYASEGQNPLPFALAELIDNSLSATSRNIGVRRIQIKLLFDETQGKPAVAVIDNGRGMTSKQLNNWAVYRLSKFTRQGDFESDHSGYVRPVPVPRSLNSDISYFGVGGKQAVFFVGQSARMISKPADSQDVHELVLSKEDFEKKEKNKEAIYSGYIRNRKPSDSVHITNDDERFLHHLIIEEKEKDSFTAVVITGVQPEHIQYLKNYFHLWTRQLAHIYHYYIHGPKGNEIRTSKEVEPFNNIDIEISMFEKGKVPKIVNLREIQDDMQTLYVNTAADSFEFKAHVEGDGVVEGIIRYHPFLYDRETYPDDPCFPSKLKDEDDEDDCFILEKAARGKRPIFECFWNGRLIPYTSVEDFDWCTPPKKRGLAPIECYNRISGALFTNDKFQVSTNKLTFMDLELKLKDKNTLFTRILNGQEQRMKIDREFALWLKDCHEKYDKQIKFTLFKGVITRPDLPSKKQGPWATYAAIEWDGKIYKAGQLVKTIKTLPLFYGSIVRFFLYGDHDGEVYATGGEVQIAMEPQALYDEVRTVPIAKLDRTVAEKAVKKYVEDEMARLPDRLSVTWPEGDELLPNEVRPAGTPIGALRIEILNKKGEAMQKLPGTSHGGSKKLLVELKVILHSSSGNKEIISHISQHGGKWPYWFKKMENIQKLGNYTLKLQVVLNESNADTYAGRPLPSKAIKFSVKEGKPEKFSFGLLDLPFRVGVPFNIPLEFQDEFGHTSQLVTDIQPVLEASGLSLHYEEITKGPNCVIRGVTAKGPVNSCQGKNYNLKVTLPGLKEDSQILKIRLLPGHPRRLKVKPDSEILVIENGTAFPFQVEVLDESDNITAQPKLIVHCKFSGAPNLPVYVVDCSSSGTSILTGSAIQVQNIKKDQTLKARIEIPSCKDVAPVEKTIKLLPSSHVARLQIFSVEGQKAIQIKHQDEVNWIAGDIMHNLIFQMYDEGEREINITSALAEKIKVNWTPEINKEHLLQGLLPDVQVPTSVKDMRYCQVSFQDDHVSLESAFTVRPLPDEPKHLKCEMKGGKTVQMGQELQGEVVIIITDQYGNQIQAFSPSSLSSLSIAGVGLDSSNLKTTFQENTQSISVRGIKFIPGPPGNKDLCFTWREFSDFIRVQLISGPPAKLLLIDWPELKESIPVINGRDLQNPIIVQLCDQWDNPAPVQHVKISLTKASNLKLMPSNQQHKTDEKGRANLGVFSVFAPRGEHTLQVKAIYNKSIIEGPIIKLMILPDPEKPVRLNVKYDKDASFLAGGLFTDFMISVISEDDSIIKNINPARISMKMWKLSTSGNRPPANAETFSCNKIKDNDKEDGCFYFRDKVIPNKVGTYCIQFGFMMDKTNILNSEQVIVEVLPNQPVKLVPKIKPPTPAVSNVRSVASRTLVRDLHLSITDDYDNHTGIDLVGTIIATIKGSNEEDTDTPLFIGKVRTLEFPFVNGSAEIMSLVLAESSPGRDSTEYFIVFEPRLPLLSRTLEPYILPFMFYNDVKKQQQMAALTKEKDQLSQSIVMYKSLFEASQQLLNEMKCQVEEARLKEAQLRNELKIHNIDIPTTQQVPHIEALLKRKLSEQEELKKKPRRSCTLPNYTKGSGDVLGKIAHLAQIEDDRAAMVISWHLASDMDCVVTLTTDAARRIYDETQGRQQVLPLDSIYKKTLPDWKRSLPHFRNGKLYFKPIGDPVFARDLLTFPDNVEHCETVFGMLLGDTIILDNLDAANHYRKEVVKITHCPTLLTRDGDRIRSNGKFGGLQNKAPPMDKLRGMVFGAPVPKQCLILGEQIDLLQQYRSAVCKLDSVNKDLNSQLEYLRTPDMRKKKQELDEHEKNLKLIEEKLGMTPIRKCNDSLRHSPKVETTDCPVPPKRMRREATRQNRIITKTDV
UniProt P61956, residues 1-93: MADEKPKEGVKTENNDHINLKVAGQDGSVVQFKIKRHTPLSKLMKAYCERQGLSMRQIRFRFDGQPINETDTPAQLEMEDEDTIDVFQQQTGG
UniProt P63165, residues 1-97: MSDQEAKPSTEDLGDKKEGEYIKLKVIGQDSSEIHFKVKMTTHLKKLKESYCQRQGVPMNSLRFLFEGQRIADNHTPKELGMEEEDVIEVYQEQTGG

Assays:
[1] = molecular target: HA tagged SMCHD1 (wild-type), expressed in HeLa cells (human) (UniProt A6NHR9); assay: Ni-NTA pull-down of His10-SUMO from HeLa lysate, HA Western blot; covalent SUMO conjugate
[2] = molecular target: HA tagged SMCHD1 mutated at K2002 (lysine to arginine) (human) (UniProt A6NHR9); assay: Ni-NTA pull-down of His10-SUMO2 from HeLa lysate, HA Western blot; covalent SUMO conjugate
[3] = molecular target: HA tagged SMCHD1 (wild-type), expressed in HeLa cells (human) (UniProt A6NHR9); assay: as above

Row | binding [1] | binding [2] | binding [3] | Substance
1 | binds | binds | binds | HIS10-SUMO2 (stably expressed in HeLa cells) (from UniProt P61956 1-93)
2 | binds | – | – | HIS10-SUMO1 (stably expressed in HeLa cells) (from UniProt P63165 1-97)
